From the supplement of paper PMC10689618
Where a name gives a salt, the structure may show the parent alone. Some of the results follow. Repeats are few or missing, and single values can be far off.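 Primary human fetal astrocytes engulfed labelled rat cortical synaptosomes, measured as a red/green ratio corrected for calcein live-cell signal and scaled to the plate median. Toxicity meant calcein falling over 30%; decreased phagocytosis meant below 70% of median above 5 µM.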

Tests used:
Human fetal astrocytes [1] = test: loss of total cells relative to no-compound high-control median (toxicity); higher = more toxic (fewer cells); details: 24 h
Human fetal astrocytes [2] = test: synaptosome phagocytosis (pHrodo/calcein intensity ratio) relative to plate median of data wells; higher = more phagocytosis; details: 24 h

Row | SMILES | loss of total cells (Human fetal astrocytes [1]; 1.39 µM) [%] | loss of total cells (Human fetal astrocytes [1]; 2.78 µM) [%] | loss of total cells (Human fetal astrocytes [1]; 5.56 µM) [%] | loss of total cells (Human fetal astrocytes [1]; 11.11 µM) [%] | loss of total cells (Human fetal astrocytes [1]; 22.22 µM) [%] | synaptosome phagocytosis (Human fetal astrocytes [2]; 1.39 µM) [%] | synaptosome phagocytosis (Human fetal astrocytes [2]; 2.78 µM) [%] | synaptosome phagocytosis (Human fetal astrocytes [2]; 5.56 µM) [%] | synaptosome phagocytosis (Human fetal astrocytes [2]; 11.11 µM) [%] | synaptosome phagocytosis (Human fetal astrocytes [2]; 22.22 µM) [%]
1 | C[C@]12CC[C@@H]3c4ccc(O)cc4CC[C@H]3[C@@H]1CCC2=O [Estrone] | 12.1 | -20.5 | 8.2 | 3.1 | -21.6 | 110 | 95.5 | 105 | 108 | 104
2 | COc1ccc(CCNC[C@@H](O)c2ccc(O)cc2)cc1OC [R(-)-Denopamine] | -14 | 6.3 | -24.7 | -12.6 | -5.8 | 102 | 95.6 | 72.8 | 96.9 | 92
3 | Cc1cccc(C)c1NC(=O)C[N+](C)(C)C [Lidocaine N-methyl hydrochloride] | -26.1 | -0.5 | -11.7 | 22.9 | 22.4 | 104 | 102 | 86.9 | 79.1 | 110
4 | COc1nc(C)nc(Cl)c1NC1=NCCN1 [Moxonidine hydrochloride] | -0.5 | 14 | 8 | 16.2 | 17.8 | 118 | 128 | 128 | 131 | 167
5 | C[n+]1cc2c3c(ccc2c2ccc4cc5c(cc4c21)OCO5)OCO3 [Sanguinarine chloride] | -9.6 | 15.9 | 14.6 | 77 | 63.4 | 68.6 | 57.7 | 38.8 | 0 | 0
6 | CN(C)CCCO[C@@H]1[C@H]2OC(C)(C)O[C@H]2O[C@@H]1[C@H](O)CO [Amiprilose hydrochloride] | -26.4 | -8.7 | -9.7 | -5.8 | -4.9 | 115 | 117 | 107 | 76.8 | 81.7
7 | Cc1c(CC(C)(C)C(=O)O)n(Cc2ccc(Cl)cc2)c2ccc(F)cc12 | -7.1 | 14.9 | 14.6 | 7.6 | 3.7 | 94.1 | 115 | 115 | 94.6 | 87.7
8 | O=c1[nH]c2ccccc2n1CCCN1CCN(C(c2ccccc2)c2ccccc2)CC1 [Oxatomide] | -36.5 | 19.5 | 17.4 | 13.3 | 24.3 | 82.4 | 110 | 143 | 98.3 | 87.9
9 | CCCCS(=N)(=O)CCC(N)C(=O)O [L-Buthionine-sulfoximine] | 5.1 | -0.9 | -1.4 | -2.2 | -10.9 | 132 | 136 | 116 | 138 | 121
10 | CC(N)(Cc1ccc(O)c(O)c1)C(=O)O (racemic) [(±)-3-(3,4-dihydroxyphenyl)-2-methyl-DL-alanine] | -7.1 | -7.7 | -33.3 | 4.8 | -14 | 89.4 | 97.3 | 77.3 | 98.8 | 89.5
11 | C[N+](C)(C)CCO.[Br-] [Choline bromide] | -6.2 | -7.8 | -0.5 | -7.6 | 4.1 | 68.7 | 98.8 | 112 | 108 | 91.8
12 | N[C@@H](CS(=O)O)C(=O)O [L-Cysteinesulfinic Acid] | -18 | -16.2 | -8.8 | -30 | -12.4 | 126 | 91.1 | 112 | 110 | 90.7
13 | Cc1ccc(OCC(O)C(C)NC(C)C)c2c1CCC2 (stereo not given) [ICI 118,551 hydrochloride] | 5.2 | 13.1 | -9.9 | 13.3 | 3.7 | 106 | 113 | 91.7 | 102 | 71.9
14 | COc1cc2ncnc(Nc3cccc(Cl)c3)c2cc1OC [Tyrphostin AG 1478] | -23.3 | -25.4 | -14.6 | -27.2 | -23.9 | 111 | 78.6 | 99.6 | 89.9 | 99.6
15 | Nc1ccc(N2C(=O)c3ccccc3C2=O)c(Cl)c1 [N-(4-Amino-2-chlorophenyl)phthalimide] | -4 | -5.4 | -11.5 | 6.7 | -4.9 | 101 | 99.4 | 120 | 122 | 76.2
16 | Nc1nc(Cl)nc2c1ncn2[C@@H]1O[C@H](CO)[C@@H](O)[C@H]1O [2-Chloroadenosine] | -18.7 | -20.2 | -17.1 | 13 | 5.6 | 105 | 109 | 105 | 128 | 100
17 | C=CCN1CCc2c(cc(O)c(O)c2Br)[C@@H](c2ccccc2)C1 [R(+)-6-Bromo-APB hydrobromide] | -17.6 | -17.7 | -13.4 | -23.8 | 3.4 | 82.4 | 88.7 | 107 | 92.3 | 80.8
18 | CC[C@H](NC(=O)c1c(C)c(-c2ccccc2)nc2ccccc12)c1ccccc1 | -5.1 | 1.8 | -10.6 | 1.3 | 2.6 | 102 | 105 | 92.5 | 108 | 110

From compound 4 to 14, copied from above:
Row | SMILES | loss of total cells (Human fetal astrocytes [1]; 1.39 µM) [%] | loss of total cells (Human fetal astrocytes [1]; 2.78 µM) [%] | loss of total cells (Human fetal astrocytes [1]; 5.56 µM) [%] | loss of total cells (Human fetal astrocytes [1]; 11.11 µM) [%] | loss of total cells (Human fetal astrocytes [1]; 22.22 µM) [%] | synaptosome phagocytosis (Human fetal astrocytes [2]; 1.39 µM) [%] | synaptosome phagocytosis (Human fetal astrocytes [2]; 2.78 µM) [%] | synaptosome phagocytosis (Human fetal astrocytes [2]; 5.56 µM) [%] | synaptosome phagocytosis (Human fetal astrocytes [2]; 11.11 µM) [%] | synaptosome phagocytosis (Human fetal astrocytes [2]; 22.22 µM) [%]
4 | COc1nc(C)nc(Cl)c1NC1=NCCN1 [Moxonidine hydrochloride] | -0.5 | 14 | 8 | 16.2 | 17.8 | 118 | 128 | 128 | 131 | 167
5 | C[n+]1cc2c3c(ccc2c2ccc4cc5c(cc4c21)OCO5)OCO3 [Sanguinarine chloride] | -9.6 | 15.9 | 14.6 | 77 | 63.4 | 68.6 | 57.7 | 38.8 | 0 | 0
6 | CN(C)CCCO[C@@H]1[C@H]2OC(C)(C)O[C@H]2O[C@@H]1[C@H](O)CO [Amiprilose hydrochloride] | -26.4 | -8.7 | -9.7 | -5.8 | -4.9 | 115 | 117 | 107 | 76.8 | 81.7
7 | Cc1c(CC(C)(C)C(=O)O)n(Cc2ccc(Cl)cc2)c2ccc(F)cc12 | -7.1 | 14.9 | 14.6 | 7.6 | 3.7 | 94.1 | 115 | 115 | 94.6 | 87.7
8 | O=c1[nH]c2ccccc2n1CCCN1CCN(C(c2ccccc2)c2ccccc2)CC1 [Oxatomide] | -36.5 | 19.5 | 17.4 | 13.3 | 24.3 | 82.4 | 110 | 143 | 98.3 | 87.9
9 | CCCCS(=N)(=O)CCC(N)C(=O)O [L-Buthionine-sulfoximine] | 5.1 | -0.9 | -1.4 | -2.2 | -10.9 | 132 | 136 | 116 | 138 | 121
10 | CC(N)(Cc1ccc(O)c(O)c1)C(=O)O (racemic) [(±)-3-(3,4-dihydroxyphenyl)-2-methyl-DL-alanine] | -7.1 | -7.7 | -33.3 | 4.8 | -14 | 89.4 | 97.3 | 77.3 | 98.8 | 89.5
11 | C[N+](C)(C)CCO.[Br-] [Choline bromide] | -6.2 | -7.8 | -0.5 | -7.6 | 4.1 | 68.7 | 98.8 | 112 | 108 | 91.8
12 | N[C@@H](CS(=O)O)C(=O)O [L-Cysteinesulfinic Acid] | -18 | -16.2 | -8.8 | -30 | -12.4 | 126 | 91.1 | 112 | 110 | 90.7
13 | Cc1ccc(OCC(O)C(C)NC(C)C)c2c1CCC2 (stereo not given) [ICI 118,551 hydrochloride] | 5.2 | 13.1 | -9.9 | 13.3 | 3.7 | 106 | 113 | 91.7 | 102 | 71.9
14 | COc1cc2ncnc(Nc3cccc(Cl)c3)c2cc1OC [Tyrphostin AG 1478] | -23.3 | -25.4 | -14.6 | -27.2 | -23.9 | 111 | 78.6 | 99.6 | 89.9 | 99.6

(cont.)

Row | SMILES | loss of total cells (Human fetal astrocytes [1]; 1.39 µM) [%] | loss of total cells (Human fetal astrocytes [1]; 2.78 µM) [%] | loss of total cells (Human fetal astrocytes [1]; 5.56 µM) [%] | loss of total cells (Human fetal astrocytes [1]; 11.11 µM) [%] | loss of total cells (Human fetal astrocytes [1]; 22.22 µM) [%] | synaptosome phagocytosis (Human fetal astrocytes [2]; 1.39 µM) [%] | synaptosome phagocytosis (Human fetal astrocytes [2]; 2.78 µM) [%] | synaptosome phagocytosis (Human fetal astrocytes [2]; 5.56 µM) [%] | synaptosome phagocytosis (Human fetal astrocytes [2]; 11.11 µM) [%] | synaptosome phagocytosis (Human fetal astrocytes [2]; 22.22 µM) [%]
19 | N#Cc1c(-c2ccccc2)no[n+]1[O-] [4-Phenyl-3-furoxancarbonitrile] | -5.2 | 2.3 | -8.9 | 20 | 27.1 | 126 | 99.9 | 131 | 98.1 | 109
20 | CN(C)CCCN1c2ccccc2Sc2ccc(Cl)cc21 [Chlorpromazine hydrochloride] | -15.8 | -5.1 | -13.4 | -8.5 | 15.4 | 84.7 | 101 | 76.2 | 101 | 75.1
21 | O=c1oc(Cl)c(Cl)c2ccccc12 [3,4-Dichloroisocoumarin] | 14.6 | -23.1 | -1.6 | -2.2 | 4 | 111 | 110 | 95.8 | 108 | 93.1
22 | OC(CN1CCC(Cc2ccc(F)cc2)CC1)c1ccc(Cl)cc1 (stereo not given) [Eliprodil] | 3.8 | -5.1 | -14 | 10.3 | 8.8 | 66.7 | 67.2 | 98.4 | 59.4 | 98.5
23 | CN(C(=O)CCCOc1ccc2[nH]c(=O)ccc2c1)C1CCCCC1 [Cilostamide] | -12.8 | -24.4 | -11.5 | -13.9 | 10.2 | 105 | 73.2 | 99.5 | 106 | 88
24 | COC(=O)c1c(-c2cc(OC)c(OC)c(OC)c2)c2ccc(OCc3ccccn3)cc2c(=O)n1-c1ccc(N)cc1 | -12.1 | -14.1 | -21.3 | 1.1 | -12.3 | 113 | 127 | 105 | 121 | 128
25 | C[C@](N)(Cc1ccc(O)cc1)C(=O)O [L-alpha-Methyl-p-tyrosine] | -15.6 | 13.1 | 11.7 | 1.9 | -6.5 | 138 | 112 | 94.6 | 125 | 143
26 | COc1cccc(NC(=O)/C=C/c2ccc(Cl)cc2)c1 | -14 | -20.1 | -16.9 | -6.5 | -0.8 | 108 | 94 | 123 | 107 | 96.6
27 | N[C@@H](CCCC(=O)O)C(=O)O [L-2-aminoadipic acid] | -0.7 | 0.6 | -0.5 | -1.3 | -3.4 | 102 | 118 | 117 | 122 | 118
28 | CCCn1c(=O)c2[nH]c(-c3ccc(S(=O)(=O)O)cc3)nc2n(CCC)c1=O [1,3-Dipropyl-8-p-sulfophenylxanthine] | -4.8 | -12 | -7.8 | 1.3 | -4.1 | 85.7 | 95.1 | 114 | 115 | 124
29 | NS(=O)(=O)c1cc(C(=O)O)c(NCc2ccco2)cc1Cl [Furosemide] | 5.4 | -24.8 | -11.5 | -8.5 | 4 | 124 | 90.5 | 122 | 126 | 108
30 | O=C(Nc1cc(C(=O)Nc2ccc(S(=O)(=O)O)cc2S(=O)(=O)O)cc(C(=O)Nc2ccc(S(=O)(=O)O)cc2S(=O)(=O)O)c1)Nc1cc(C(=O)Nc2ccc(S(=O)(=O)O)cc2S(=O)(=O)O)cc(C(=O)Nc2ccc(S(=O)(=O)O)cc2S(=O)(=O)O)c1 [NF449 octasodium salt] | -9 | 13.1 | 21.1 | 17.1 | 26.2 | 174 | 186 | 232 | 274 | 320
31 | O=C(NCCNCC(O)COc1ccc(O)cc1)N1CCOCC1 (stereo not given) [Xamoterol hemifumarate] | -17.1 | -32.6 | -10.1 | -24.9 | -38.7 | 133 | 87.8 | 94.6 | 140 | 122
32 | N/C(=N\C(=O)c1nc(Cl)c(N)nc1N)NCc1ccc(Cl)c(Cl)c1 [3',4'-Dichlorobenzamil] | 0.4 | -12.8 | 3.3 | 6.7 | 21.6 | 75.3 | 63 | 59.4 | 103 | 55.8
33 | O=C1NCN(c2ccccc2)C12CCN(CCCC(c1ccc(F)cc1)c1ccc(F)cc1)CC2 [Fluspirilene] | 8.8 | 0.9 | 11.5 | -8.5 | 0 | 81 | 92.7 | 70.6 | 79.2 | 99.4
34 | Cn1cc(C(F)(F)F)nc1-c1ccc(OCC(O)CNCCOc2ccc(O)c(C(N)=O)c2)cc1 (stereo not given) | -2.9 | -3.4 | 4.9 | -6.7 | 30.4 | 89.3 | 93.3 | 100 | 65.7 | 81.2
35 | CC1=C(C)C(=O)C(CCCCC#CCCCC#CCO)=C(C)C1=O | -15.4 | -21.1 | -16.1 | -24.7 | 13.9 | 88.6 | 105 | 96 | 86 | 70.1
